# Values joined by “and” are separate entries in the source; they are usually repeats but may differ in a detail not shown here. Equal values may be shown once. Inconclusive means that the source gave no clear call. Such entries were picked first, then a sample of the others. For part of these data: Potencies of inconclusive entries are doubtful fits and often do not repeat. Active and inactive are the calls of the source. Rule for the calls: active = hit-call score of the fitted dose curve at least 0.9, where 1 is the maximum; inconclusive = response in the unintended direction; inactive = score below 0.9.
# The chains behind the UniProt entries cited, without tags or fusion partners.
# UniProt P06212, whole entry, looked up: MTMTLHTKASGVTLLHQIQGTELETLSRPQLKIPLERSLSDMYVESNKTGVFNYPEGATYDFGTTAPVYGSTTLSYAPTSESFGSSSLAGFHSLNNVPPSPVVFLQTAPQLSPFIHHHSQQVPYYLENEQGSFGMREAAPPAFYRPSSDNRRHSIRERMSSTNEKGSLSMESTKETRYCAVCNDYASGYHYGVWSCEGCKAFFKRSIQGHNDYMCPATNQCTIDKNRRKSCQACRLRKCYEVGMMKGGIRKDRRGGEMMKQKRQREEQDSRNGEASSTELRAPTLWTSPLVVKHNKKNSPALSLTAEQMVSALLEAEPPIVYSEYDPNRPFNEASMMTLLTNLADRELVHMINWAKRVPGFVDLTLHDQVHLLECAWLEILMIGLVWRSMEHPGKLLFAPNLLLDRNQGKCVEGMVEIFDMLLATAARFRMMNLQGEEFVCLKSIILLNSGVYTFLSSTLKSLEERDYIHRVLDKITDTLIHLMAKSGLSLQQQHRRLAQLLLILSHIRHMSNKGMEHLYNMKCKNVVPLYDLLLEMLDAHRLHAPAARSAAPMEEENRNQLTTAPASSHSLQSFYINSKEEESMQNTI
# UniProt P03372, whole entry, looked up: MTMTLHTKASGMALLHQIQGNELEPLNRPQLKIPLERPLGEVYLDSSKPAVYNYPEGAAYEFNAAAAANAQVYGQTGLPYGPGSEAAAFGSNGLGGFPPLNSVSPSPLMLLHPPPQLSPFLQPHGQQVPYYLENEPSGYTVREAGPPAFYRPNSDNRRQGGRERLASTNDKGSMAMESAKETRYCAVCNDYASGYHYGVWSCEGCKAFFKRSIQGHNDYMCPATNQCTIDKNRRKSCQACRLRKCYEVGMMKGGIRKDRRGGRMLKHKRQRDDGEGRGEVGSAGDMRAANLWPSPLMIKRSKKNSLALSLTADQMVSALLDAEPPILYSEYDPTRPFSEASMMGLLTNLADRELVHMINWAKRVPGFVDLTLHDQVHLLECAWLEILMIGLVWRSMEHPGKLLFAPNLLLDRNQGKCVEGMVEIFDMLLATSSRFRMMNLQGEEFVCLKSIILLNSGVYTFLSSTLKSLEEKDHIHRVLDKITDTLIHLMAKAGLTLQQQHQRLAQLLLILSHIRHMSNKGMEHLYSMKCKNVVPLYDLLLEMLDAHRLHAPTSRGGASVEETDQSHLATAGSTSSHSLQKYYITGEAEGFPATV
# Legend:
# [1] = ACEA_AR_agonist_AUC_viability: ACEA Biosciences xCELLigence Real-Time Cell Analysis on Androgen Receptor Agonism for Viability (AID 2283775);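 for AC50: viability read 80 hours after compound addition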
# Procedure, shortened: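 Read-out is area under the impedance curve at 80 h post-dose in 22Rv1 cells, with DMSO as baseline and signal loss taken as reduced viability. Compounds ran in duplicate from 100 uM final.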
# [2] = ACEA_ER_AUC_viability: ACEA Biosciences xCELLigence Real-Time Cell Analysis on Estrogen Receptor Agonism for Viability (AID 2283782);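 note: continuous compound exposure with impedance area under curve over 80 h; hit means loss of impedance signal meaning reduced cell growth or viability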
# Procedure, shortened: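 T-47D human breast cells in phenol red-free RPMI1640 with 10% charcoal-stripped FBS were dosed with an 8-point 1:4 dilution series from 100 uM top final concentration, in duplicate. Impedance-based growth was followed for 80 h; AUC analysed versus DMSO.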
# [3] = tested on: zebrafish Estrogen Receptor (ESR2A), gene 317734; assay: ATG_zfER2a_XSP1: Attagene TRANS-FACTORIAL Multi-Species (XSP1) HepG2 Assay for zebrafish Estrogen Receptor (ESR2A) (AID 2283778)
# Procedure, shortened: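 HepG2 cells transiently transfected with multiplexed GAL4-UAS reporter units and chimeric NR-GAL4 receptors; 24 h compound exposure with 3 nM 6-alpha-fluorotestosterone present. Reporter mRNA quantified by RT-PCR and capillary electrophoresis, gain-of-signal fitted relative to DMSO.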
# [4] = tested on: turtle Estrogen Receptor (ESR1), gene 101933533; assay: ATG_trERa_XSP1: Attagene TRANS-FACTORIAL Multi-Species (XSP1) HepG2 Assay for turtle Estrogen Receptor (ESR1) (AID 2283781)
# Procedure, shortened: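 HepG2 cells transiently transfected with GAL4-UAS reporter units and chimeric NR-Gal4 constructs, dosed for 24 h with 3 nM 6-alpha-fluorotestosterone present. Reporter mRNA was quantified by RT-PCR, fluorescent labelling and capillary electrophoresis, with gain of signal fitted relative to DMSO.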
# [5] = STM_H9_NormalizedViability: Cytotoxicity Assessment at 120 hours in the Stemina devTOX quickPredict H9 human embryonic stem cell (hESC)-based Assay (AID 2283784)
# Procedure, shortened: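 Chemicals are tested blinded on H9 human embryonic stem cells in the pluripotent state, with medium exchanged daily. After background correction, fluorescence from CellTiter-Fluor is scaled against 0.1% DMSO wells, and decreases are scored.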
# [6] = molecular target: chicken Estrogen Receptor (ESR1), ESR1 (gene 396099) (UniProt P06212); assay: ATG_chERa_XSP1: Attagene TRANS-FACTORIAL Multi-Species (XSP1) HepG2 Assay for chicken Estrogen Receptor (ESR1) (AID 2283779)
# Procedure, shortened: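 HepG2 cells transiently transfected with multiplexed GAL4-UAS reporter units expressing chimeric NR-Gal4 proteins; 3 nM 6-alpha-fluorotestosterone present. Reporter mRNA measured 24 h after dosing by RT-PCR, FAM labelling, HpaI digest and capillary electrophoresis; gain of signal versus DMSO.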
# [7] = molecular target: Estrogen receptor (Homo sapiens) (UniProt P03372); assay: ATG_hERa_XSP1: Attagene TRANS-FACTORIAL Multi-Species (XSP1) HepG2 Assay for human Estrogen Receptor (ESR1) (AID 2283780)
# Procedure, shortened: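 HepG2 cells transiently transfected with GAL4-UAS reporter units and chimeric NR-Gal4 constructs; 24 h after dosing, reporter mRNA quantified by RT-PCR and capillary electrophoresis. Medium contained 3 nM 6-alpha-fluorotestosterone; activity fitted as gain-of-signal versus DMSO.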
# [8] = tested on: turtle Androgen Receptor (AR), gene 101947425; assay: ATG_trAR_XSP1: Attagene TRANS-FACTORIAL Multi-Species (XSP1) HepG2 Assay for turtle Androgen Receptor (AR) (AID 2283786)
# Procedure, shortened: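 HepG2 cells transiently transfected with a turtle AR–GAL4 chimera and GAL4-UAS reporter, co-treated with 3 nM 6-alpha-fluorotestosterone for partial stimulation. Reporter mRNA is quantified at 24 h by RT-PCR and capillary electrophoresis, gain-of-signal versus DMSO.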
# [9] = ACEA_AR_antagonist_AUC_viability: ACEA Biosciences xCELLigence Real-Time Cell Analysis on Androgen Receptor Antagonism for Viability (AID 2283776);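 note: 22Rv1 human prostate cancer cells growing on impedance electrode plates; area under impedance growth curve at 80 h after dosing as viability; hits lower the growth signal relative to DMSO meaning cytotoxicity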
# Procedure, shortened: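 Viability endpoint from label-free cell-index monitoring: 22Rv1 cultures treated with an eight-point 1:4 dilution series starting at 100 uM final, AUC at 80 h fitted against DMSO.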
smiles,measurement,setting,value
CN(C)C(=O)Cl,AC50,[1],inconclusive: 50 µM
same,AC50,[2],inconclusive: 50 µM
O=S(=O)(c1ccc(O)cc1)c1ccc(O)cc1,outcome,[1],inactive
same,AC50,[2],inconclusive: 1.62 µM
CC(C)C(=O)OCC(C)(C)C(OC(=O)C(C)C)C(C)C (stereo not given),AC50,[1],active: 75 µM
same,AC50,[2],inconclusive: 50 µM
CC1(C)C(C=C(Cl)Cl)C1C(=O)OC(C#N)c1cccc(Oc2ccccc2)c1 (stereo not given),AC50,[1],active: 73.1 µM
same,outcome,[3],inactive
same,outcome,[4],inactive
same,AC50,[2],inconclusive: 0.0807 µM
same,AC50,[5],inconclusive: 0.0175 µM
O=C(O)C(F)(F)C(F)(F)C(F)(F)C(F)(F)C(F)(F)C(F)(F)C(F)(F)C(F)(F)C(F)(F)F,AC50,[1],active: 71.7 µM
same,AC50,[2],active: 78.6 µM and active: 125 µM
Cc1ccc([N+](=O)[O-])cc1,outcome,[1],inactive
same,AC50,[2],inconclusive: 10.2 µM
FC(F)(F)c1ccc(Cl)cc1,AC50,[1],inconclusive: 0.767 µM
same,AC50,[2],inconclusive: 50 µM
C=CC1(C)OC(=O)N(c2cc(Cl)cc(Cl)c2)C1=O (stereo not given),outcome,[3],inactive
COP(=O)(OC)O/C(=C\Cl)c1cc(Cl)c(Cl)cc1Cl,AC50,[3],inconclusive: 161 µM
CCC[CH2][Sn]([Cl])([CH2]CCC)[CH2]CCC,AC50,[6],inconclusive: 0.334 µM
CC(C)(c1ccccc1)c1ccc(O)cc1,AC50,[7],active: 0.3 µM
Clc1ccc(C(c2ccc(Cl)cc2)C(Cl)Cl)cc1,AC50,[8],inconclusive: 21.1 µM
CCNP(=S)(OC)O/C(C)=C/C(=O)OC(C)C (stereo not given),outcome,[9],inactive
same,AC50,[2],inconclusive: 50 µM
same,outcome,[5],inactive
COP(=S)(OC)Oc1nc(Cl)c(Cl)cc1Cl,AC50,[3],inconclusive: 100 µM
same,AC50,[7],active: 27.1 µM
same,AC50,[2],active: 79 µM
same,AC50,[8],active: 25.3 µM
Oc1cc(Cl)ccc1Oc1ccc(Cl)cc1Cl,AC50,[3],active: 4.96 µM
same,outcome,[6],inactive
same,AC50,[2],active: 21.9 µM [middle of 6 runs]
CS(=O)(=O)c1ccc(C(=O)C2C(=O)CCCC2=O)c([N+](=O)[O-])c1,AC50,[9],inconclusive: 51 µM
same,AC50,[2],inconclusive: 51 µM
COc1ccc(C(c2ccc(OC)cc2)C(Cl)(Cl)Cl)cc1,outcome,[3],inactive
same,AC50,[5],inconclusive: 5 µM
CC(C)CCCCCCCOC(=O)c1ccccc1C(=O)OCCCCCCCC(C)C,outcome,[4],inactive
CCOc1nc(F)cc2nc(S(=O)(=O)Nc3c(Cl)cccc3Cl)nn12,AC50,[9],inconclusive: 0.0178 µM
same,AC50,[2],inconclusive: 0.0125 µM
same,AC50,[5],inconclusive: 50 µM
O=c1oc2ccccc2c(O)c1C(CC(O)c1ccc(-c2ccc(Br)cc2)cc1)c1ccccc1 (stereo not given),AC50,[2],active: 22.7 µM
CC(C)(C)c1ccc(CSc2cnn(C(C)(C)C)c(=O)c2Cl)cc1,outcome,[4],inactive
same,AC50,[2],inconclusive: 0.00227 µM
same,AC50,[5],active: 0.12 µM
same,outcome,[8],inactive

# Some of the entries so far, with tabs.
smiles	measurement	setting	value
CC(C)(C)c1ccc(CSc2cnn(C(C)(C)C)c(=O)c2Cl)cc1	outcome	[4]	inactive
same	AC50	[2]	inconclusive: 0.00227 µM
same	AC50	[5]	active: 0.12 µM
same	outcome	[8]	inactive

# Reference: PubChem BioAssay (EPA / NIEHS)
